Test results from the supplement of paper PMC11348887.
Structures can show the parent of a compound that is named as a salt. Some of the results follow. Small differences around the control level are noise.

test system: hPSC-derived cortical neurons (WA09); assay: nucleus roundness z-score vs screen plate; higher = rounder nuclei (more mature); details: 5 µM; treatment: days 7-14 after plating, readout day 21

Compound | nucleus roundness z-score
O=C1NC(=O)C(c2ccccc2[N+](=O)[O-])=C1Nc1ccc(O)c(Cl)c1 | 0.0425
CCCOc1ccc(CCc2nc3cc(-c4c(C)noc4C)ccc3n2CCN2CCOCC2)cc1 | -0.259
C[C@]12CCC(=O)C=C1[C@@H]1C[C@@H]1[C@H]1[C@@H]3[C@@H]4C[C@@H]4[C@@]4(CCC(=O)O4)[C@@]3(C)CC[C@@H]12 [Drospirenone] | -2.1
CCOC(=O)c1cnc2ccc(-c3cncc(NS(=O)(=O)c4ccccc4)c3)cn12 | 0.599
OC[C@H]1O[C@@H](c2ccc(Cl)c(Cc3ccc(O[C@H]4CCOC4)cc3)c2)[C@H](O)[C@@H](O)[C@@H]1O | 0.126
CCCCOc1ccc(C(=O)Nc2ccc(F)cc2F)cc1 | 0.237
Cc1cc2c(C(N)=O)cccc2n1-c1nc2c(c(NCc3ccccc3)n1)COCC2 | -10.7
CC(C)(Oc1ccc(C(=O)c2ccc(Cl)cc2)cc1)C(=O)O [Fenofibric acid] | -0.104
CC(C)c1c(C(=O)Nc2ccccc2)c(-c2ccccc2)c(-c2ccc(F)cc2)n1CC[C@@H](O)C[C@@H](O)CC(=O)O [Atorvastatin Calcium] | -3.1
Nc1nc(Nc2ccc3c(c2)CCC(N2CCCC2)CC3)nn1-c1cc2c(nn1)-c1ccccc1CCC2 (stereo not given) | -2.02
Cc1cc2c(cc1CC(=O)c1sccc1S(=O)(=O)Nc1onc(C)c1Cl)OCO2 [Sitaxentan sodium] | -1.41
CCCCOc1ccc(CC(=O)NO)cc1 [Bufexamac] | 0.582
O=C(O)C(Cc1ccccc1[N+](=O)[O-])=NNc1nc(-c2ccc(Cl)c(Cl)c2)cs1 (mixture of isomers) | 0.226
CCC(CC)CC1(C(=O)Nc2ccccc2SC(=O)C(C)C)CCCCC1 | -0.0117
CCN(c1cc(C#CCN2CCOCC2)cc(C(=O)NCc2c(C)cc(C)[nH]c2=O)c1C)[C@H]1CC[C@H](N(C)CCOC)CC1 | 0.651
Cc1ncc(-c2ccnc(Nc3ccc(S(C)(=O)=O)cc3)n2)n1C(C)C | -1.42
C#C[C@]1(O)CC[C@H]2[C@@H]3CCC4=CC(=O)CC[C@@H]4[C@H]3C(=C)C[C@@]21CC [Etonogestrel] | -0.611
CNCCC(Oc1ccc(C(F)(F)F)cc1)c1ccccc1 (stereo not given) [Fluoxetine HCl] | -1.47

Filtered by structure, the entries above containing a nitro group on carbon
Compound | nucleus roundness z-score
O=C1NC(=O)C(c2ccccc2[N+](=O)[O-])=C1Nc1ccc(O)c(Cl)c1 | 0.0425
O=C(O)C(Cc1ccccc1[N+](=O)[O-])=NNc1nc(-c2ccc(Cl)c(Cl)c2)cs1 (mixture of isomers) | 0.226

Next part

Compound | nucleus roundness z-score
CN(C(=O)CN(CCO)CC(=O)N(C)C(C)(C)Cc1ccccc1)C(C)(C)Cc1ccccc1 [Oxethazaine] | -1.91
COc1ccc(C(=O)Nc2sc3c(c2C(N)=O)CCCC3)cc1OC | 0.0742
CC#CC(=O)N1CCC[C@H]1c1nc(-c2ccc(C(=O)Nc3ccccn3)cc2)c2c(N)nccn12 [Acalabrutinib (ACP-196)] | -3.25
OC[C@H]1O[C@@H](Oc2cc(O)cc(/C=C/c3ccc(O)cc3)c2)[C@H](O)[C@@H](O)[C@@H]1O [Polydatin] | -0.181
CCCc1cc(-c2nc(-c3ccc(C)cc3)cs2)ccn1 [Fatostatin HBr] | -1.08
COc1ccc(-n2nc(C(N)=O)c3c2C(=O)N(c2ccc(N4CCCCC4=O)cc2)CC3)cc1 [Apixaban] | 1.03
C[C@]12C=CC(=O)C=C1CC[C@H]1[C@@H]3C[C@@H](O)[C@](O)(C(=O)CO)[C@@]3(C)C[C@H](O)[C@@]12F [Triamcinolone] | -0.233
Nc1nc(Nc2ccc(S(N)(=O)=O)cc2)nn1C(=O)c1c(F)cccc1F | -3.23
CC(C)(O)CC[C@@H](O)[C@](C)(O)[C@H]1CC[C@@]2(O)C3=CC(=O)[C@@H]4C[C@@H](O)[C@@H](O)C[C@]4(C)[C@H]3CC[C@]12C [20-Hydroxyecdysone] | 0.396
CC(C)NCC(O)c1ccc(O)c(O)c1 (stereo not given) [Isoprenaline HCl] | 0.335
Cc1nc2ccc(NC(=O)Nc3ccnc4cccnc34)cc2o1 | 0.0646
NC(=O)c1ncn([C@@H]2O[C@H](CO)[C@@H](O)[C@H]2O)c1N [Acadesine] | -0.907
COc1c(C)cnc(Cn2cnc3c(Cl)nc(N)nc32)c1C | -2.41
Cc1ccc(NC(=S)NNc2c([N+](=O)[O-])cc(C(F)(F)F)cc2[N+](=O)[O-])cc1Cl | 0.739
Cc1nc2c(-c3cnc(N)nc3)nc(N3CCOCC3)nc2n1C(C)C | -2.18
CNC(=O)c1ccccc1Sc1ccc2c(/C=C/c3ccccn3)n[nH]c2c1 [Axitinib] | -4.19
CC[C@H](C)C(=O)O[C@H]1C[C@@H](C)C=C2C=C[C@H](C)[C@H](CC[C@@H]3C[C@@H](O)CC(=O)O3)[C@H]21 [Lovastatin] | 1.4
